From article PMC10324619
No constants are given. Whether binding was seen depends on the method and setting. For some assays here: Binding seen in cells or lysates may run through a third protein. Some results given as binding are weak or reduced against the parent protein; the word gives no strength. For some assays here: Where a sequence is shown, tags or fusion partners need not be part of it.

How the values were obtained:
[1] = target: T1, biotinylated purified human beta defensin-3 (HBD3) protein (human) (UniProt P81534); assay: pull-down; chilled A549 cells expressing FLAG-LRP5 incubated with biotinylated HBD3 for 4 h at 4°C; lysed in PBS with 1% Triton X-100; lysate precipitated with NeutrAvidin-agarose 16 h at 4°C; western blot with anti-FLAG; only the target purified
T1 sequence (chain, biotin (TFPA-PEG3-Biotin; sites not stated)): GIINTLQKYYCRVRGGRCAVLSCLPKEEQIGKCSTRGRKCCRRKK

[2] = target: T1, biotinylated purified human beta defensin-3 (HBD3) protein (human); assay: pull-down; cell-free: biotinylated HBD3 bound to avidin-agarose (16 h at 4°C), washed, incubated with purified truncated LRP5 (16 h at 4°C); western blot with LRP5 antibody; non-biotinylated HBD3 as control; both purified

Molecule: FLAG-tagged LDL receptor-related protein-5 (LRP5) (from UniProt O75197 32-1615)
- binding [1]: binds

B1: purified truncated recombinant LRP5 protein (aa769-aa1016) with Fc tag (Fc fusion, UniProt O75197 769-1016)
chain: DPTKGYIYWTEWGGKPRIVRAFMDGTNCMTLVDKVGRANDLTIDYADQRLYWTDLDTNMIESSNMLGQERVVIADDLPHPFGLTQYSDYIYWTDWNLHSIERADKTSGRNRTLIQGHLDFVMDILVFHSSRQDGLNDCMHNNGQCGQLCLAIPGGHRCGCASHYTLDPSSRNCSPPTTFLLFSQKSAISRMIPDDQHSPDLILPLHGLRNVKAIDYDPLDKFIYWVDGRQNIKRAKDDGTQPFVLTSL
- binding [2]: binds
